This is one part of the list. Most entries show no effect beyond the scatter of the controls.

Chains of the proteins cited; added tags and fusions are not shown. Lines headed by an entry give the natural chain unless they say otherwise; changes in a name come on top.
UniProt P40227, whole entry: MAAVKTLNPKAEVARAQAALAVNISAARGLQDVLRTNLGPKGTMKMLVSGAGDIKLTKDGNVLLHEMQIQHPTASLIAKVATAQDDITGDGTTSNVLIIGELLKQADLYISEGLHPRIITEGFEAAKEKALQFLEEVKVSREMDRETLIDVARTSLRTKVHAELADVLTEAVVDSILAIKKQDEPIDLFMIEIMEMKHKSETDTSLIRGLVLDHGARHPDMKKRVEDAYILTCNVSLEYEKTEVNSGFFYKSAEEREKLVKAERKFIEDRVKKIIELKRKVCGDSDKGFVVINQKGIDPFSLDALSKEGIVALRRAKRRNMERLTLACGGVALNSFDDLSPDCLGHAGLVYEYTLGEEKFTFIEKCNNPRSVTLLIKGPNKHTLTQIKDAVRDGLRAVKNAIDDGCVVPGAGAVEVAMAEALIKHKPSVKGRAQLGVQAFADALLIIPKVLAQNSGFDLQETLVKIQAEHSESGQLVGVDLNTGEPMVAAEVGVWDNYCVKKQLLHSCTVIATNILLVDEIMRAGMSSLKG
UniProt P38935: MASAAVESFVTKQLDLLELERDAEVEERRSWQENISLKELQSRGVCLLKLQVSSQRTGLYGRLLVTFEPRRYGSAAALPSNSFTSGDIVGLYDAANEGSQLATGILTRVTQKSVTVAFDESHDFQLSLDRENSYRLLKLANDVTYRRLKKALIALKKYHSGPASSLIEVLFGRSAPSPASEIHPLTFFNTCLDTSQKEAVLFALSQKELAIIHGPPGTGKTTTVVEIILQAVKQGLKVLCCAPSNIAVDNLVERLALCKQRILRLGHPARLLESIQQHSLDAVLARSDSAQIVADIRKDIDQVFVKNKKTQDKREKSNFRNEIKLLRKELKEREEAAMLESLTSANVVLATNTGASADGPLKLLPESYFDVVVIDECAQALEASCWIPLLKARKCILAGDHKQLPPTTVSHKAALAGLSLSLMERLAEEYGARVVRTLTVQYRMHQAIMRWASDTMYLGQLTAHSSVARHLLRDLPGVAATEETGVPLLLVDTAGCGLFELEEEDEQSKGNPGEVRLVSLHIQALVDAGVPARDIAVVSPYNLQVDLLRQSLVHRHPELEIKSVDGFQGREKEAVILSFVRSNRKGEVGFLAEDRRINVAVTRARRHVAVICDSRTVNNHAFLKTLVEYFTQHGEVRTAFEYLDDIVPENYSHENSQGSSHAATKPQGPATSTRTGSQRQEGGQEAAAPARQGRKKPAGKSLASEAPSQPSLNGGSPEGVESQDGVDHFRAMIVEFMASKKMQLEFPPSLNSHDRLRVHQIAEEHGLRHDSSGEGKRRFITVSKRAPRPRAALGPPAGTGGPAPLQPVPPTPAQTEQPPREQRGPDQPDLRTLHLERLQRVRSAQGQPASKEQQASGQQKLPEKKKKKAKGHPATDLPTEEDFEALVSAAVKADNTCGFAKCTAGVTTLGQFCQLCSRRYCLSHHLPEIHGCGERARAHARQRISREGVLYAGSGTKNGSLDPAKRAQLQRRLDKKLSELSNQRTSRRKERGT
UniProt P43357, whole entry: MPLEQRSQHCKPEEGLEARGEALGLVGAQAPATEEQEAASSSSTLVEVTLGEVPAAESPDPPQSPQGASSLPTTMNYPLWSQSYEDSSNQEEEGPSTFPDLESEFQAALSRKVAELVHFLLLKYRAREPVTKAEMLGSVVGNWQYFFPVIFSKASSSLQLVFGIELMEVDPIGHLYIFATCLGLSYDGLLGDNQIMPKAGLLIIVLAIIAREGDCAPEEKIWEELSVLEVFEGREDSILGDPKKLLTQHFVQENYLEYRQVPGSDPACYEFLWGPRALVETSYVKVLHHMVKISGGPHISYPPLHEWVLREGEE
UniProt P41567, whole entry: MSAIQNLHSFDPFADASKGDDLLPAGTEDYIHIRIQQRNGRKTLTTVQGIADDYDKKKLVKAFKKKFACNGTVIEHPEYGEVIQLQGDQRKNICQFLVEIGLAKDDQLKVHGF
UniProt P29353: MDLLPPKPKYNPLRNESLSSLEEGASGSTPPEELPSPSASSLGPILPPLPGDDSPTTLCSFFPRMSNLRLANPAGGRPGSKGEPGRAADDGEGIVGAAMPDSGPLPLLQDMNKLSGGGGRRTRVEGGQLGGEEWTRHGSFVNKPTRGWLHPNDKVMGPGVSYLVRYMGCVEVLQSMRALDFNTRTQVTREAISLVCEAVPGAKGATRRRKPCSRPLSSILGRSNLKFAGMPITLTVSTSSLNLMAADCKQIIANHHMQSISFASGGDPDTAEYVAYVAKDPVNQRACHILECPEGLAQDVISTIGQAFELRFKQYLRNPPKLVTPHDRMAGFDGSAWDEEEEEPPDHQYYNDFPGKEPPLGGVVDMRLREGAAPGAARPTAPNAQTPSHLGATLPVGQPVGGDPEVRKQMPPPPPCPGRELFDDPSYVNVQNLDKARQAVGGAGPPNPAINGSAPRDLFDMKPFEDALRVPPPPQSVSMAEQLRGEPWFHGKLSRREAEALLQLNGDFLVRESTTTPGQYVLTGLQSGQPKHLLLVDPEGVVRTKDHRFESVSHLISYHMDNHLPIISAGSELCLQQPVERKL
UniProt P35813: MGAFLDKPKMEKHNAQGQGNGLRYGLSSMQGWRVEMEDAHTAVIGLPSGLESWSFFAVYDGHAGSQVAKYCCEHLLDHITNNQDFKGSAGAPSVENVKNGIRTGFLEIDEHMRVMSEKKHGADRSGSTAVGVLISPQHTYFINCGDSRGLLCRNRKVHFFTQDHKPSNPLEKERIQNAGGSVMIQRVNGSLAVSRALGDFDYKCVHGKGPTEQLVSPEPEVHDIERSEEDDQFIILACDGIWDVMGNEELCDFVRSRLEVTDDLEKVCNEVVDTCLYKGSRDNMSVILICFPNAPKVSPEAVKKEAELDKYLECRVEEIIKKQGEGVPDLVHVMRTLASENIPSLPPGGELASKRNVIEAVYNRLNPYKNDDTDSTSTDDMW
UniProt P36915, whole entry: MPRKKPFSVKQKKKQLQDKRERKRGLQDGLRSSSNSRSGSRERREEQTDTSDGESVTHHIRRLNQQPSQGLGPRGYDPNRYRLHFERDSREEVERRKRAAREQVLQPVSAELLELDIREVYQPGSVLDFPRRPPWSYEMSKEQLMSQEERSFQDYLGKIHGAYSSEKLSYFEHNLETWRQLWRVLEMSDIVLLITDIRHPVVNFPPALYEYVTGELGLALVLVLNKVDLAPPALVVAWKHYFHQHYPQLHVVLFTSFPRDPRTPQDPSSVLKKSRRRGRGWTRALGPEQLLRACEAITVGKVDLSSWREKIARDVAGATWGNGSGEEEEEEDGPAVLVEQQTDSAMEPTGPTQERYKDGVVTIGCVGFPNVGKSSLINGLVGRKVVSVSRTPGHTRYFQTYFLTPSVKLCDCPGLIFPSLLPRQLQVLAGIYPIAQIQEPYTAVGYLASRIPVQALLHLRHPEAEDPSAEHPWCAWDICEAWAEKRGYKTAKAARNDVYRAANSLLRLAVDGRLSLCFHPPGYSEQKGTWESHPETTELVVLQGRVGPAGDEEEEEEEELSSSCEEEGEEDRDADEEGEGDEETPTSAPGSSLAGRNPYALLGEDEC
UniProt P43243: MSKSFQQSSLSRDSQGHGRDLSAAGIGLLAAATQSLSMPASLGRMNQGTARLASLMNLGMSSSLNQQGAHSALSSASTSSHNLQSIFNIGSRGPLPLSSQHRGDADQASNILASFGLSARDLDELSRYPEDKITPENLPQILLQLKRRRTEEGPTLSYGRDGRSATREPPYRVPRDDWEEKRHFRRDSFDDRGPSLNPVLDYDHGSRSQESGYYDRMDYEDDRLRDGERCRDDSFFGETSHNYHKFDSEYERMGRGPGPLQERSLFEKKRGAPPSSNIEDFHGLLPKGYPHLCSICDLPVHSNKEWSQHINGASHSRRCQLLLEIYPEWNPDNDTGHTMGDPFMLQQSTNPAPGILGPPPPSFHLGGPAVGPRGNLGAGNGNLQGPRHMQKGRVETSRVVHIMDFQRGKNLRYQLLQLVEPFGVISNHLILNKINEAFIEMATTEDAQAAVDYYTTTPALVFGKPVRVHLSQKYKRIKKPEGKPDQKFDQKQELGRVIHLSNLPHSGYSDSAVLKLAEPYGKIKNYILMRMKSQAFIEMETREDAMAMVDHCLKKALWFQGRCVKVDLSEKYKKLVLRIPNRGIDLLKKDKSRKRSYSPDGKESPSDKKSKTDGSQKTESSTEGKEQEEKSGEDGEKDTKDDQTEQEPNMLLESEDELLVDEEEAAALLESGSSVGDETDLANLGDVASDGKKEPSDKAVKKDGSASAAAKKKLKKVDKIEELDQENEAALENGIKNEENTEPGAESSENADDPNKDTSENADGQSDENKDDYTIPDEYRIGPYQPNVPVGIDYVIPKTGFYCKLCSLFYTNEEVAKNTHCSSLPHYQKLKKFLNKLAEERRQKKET
UniProt P36969, whole entry: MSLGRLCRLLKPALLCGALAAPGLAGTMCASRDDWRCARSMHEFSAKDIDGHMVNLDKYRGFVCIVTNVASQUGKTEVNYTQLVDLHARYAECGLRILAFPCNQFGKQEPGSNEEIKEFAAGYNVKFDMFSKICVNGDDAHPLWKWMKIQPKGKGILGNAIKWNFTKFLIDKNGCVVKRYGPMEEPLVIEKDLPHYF
UniProt P42898: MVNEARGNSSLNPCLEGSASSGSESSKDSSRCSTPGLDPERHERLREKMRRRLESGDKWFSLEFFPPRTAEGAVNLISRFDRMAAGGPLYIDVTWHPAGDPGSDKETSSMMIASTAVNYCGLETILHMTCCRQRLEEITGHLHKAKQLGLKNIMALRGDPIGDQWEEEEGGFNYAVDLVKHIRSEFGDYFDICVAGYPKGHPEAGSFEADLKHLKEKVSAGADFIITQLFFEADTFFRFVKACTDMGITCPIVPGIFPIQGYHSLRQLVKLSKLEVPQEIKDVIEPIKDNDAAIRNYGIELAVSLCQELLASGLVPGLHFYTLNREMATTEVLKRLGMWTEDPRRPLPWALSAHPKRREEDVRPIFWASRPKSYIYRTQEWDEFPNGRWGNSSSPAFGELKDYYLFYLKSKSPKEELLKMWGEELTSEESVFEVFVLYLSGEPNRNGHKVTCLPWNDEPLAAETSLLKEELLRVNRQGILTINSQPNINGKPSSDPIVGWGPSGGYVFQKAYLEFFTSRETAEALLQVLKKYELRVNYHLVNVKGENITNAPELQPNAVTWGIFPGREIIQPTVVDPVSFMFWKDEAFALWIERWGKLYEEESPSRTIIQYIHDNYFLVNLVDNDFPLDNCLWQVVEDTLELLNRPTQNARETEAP

Compound in this experiment: CN[C@@H]1C[C@H]2O[C@@](C)([C@@H]1OC)n1c3ccccc3c3c4c(c5c6ccccc6n2c5c31)C(=O)NC4 [staurosporine]
Description: log2 fold change of tryptic peptide abundance, ligand vs vehicle (limited proteolysis) (log2 ratio); higher = more trypsin-susceptible (destabilized). Particulars: ligand concentration: 20 uM; sample: K562 cleared lysate; digestion: 4 min, 22 C (HT-PELSA RT4min, Orbitrap Astral).
Consider “CCT6A (peptide sequence: TLNPKAEVARAQAALAVNISAAR, peptide start residue: 6) (UniProt P40227)”, for which the log2 fold change is 0.774.

For the target “IGHMBP2 (peptide sequence: KLSELSNQR, peptide start residue: 976) (UniProt P38935)”, the log2 fold change was -0.564.

Take “MAGEA3 (peptide sequence: SQHCKPEEGLEAR, peptide start residue: 7) (UniProt P43357)”: the log2 fold change is -0.111.

Turning to “EIF1 (peptide sequence: NICQFLVEIGLAK, peptide start residue: 92) (UniProt P41567)”, the log2 fold change was 0.187.

With “SHC1 (peptide sequence: KQMPPPPPCPGR, peptide start residue: 408) (UniProt P29353)”, the log2 fold change was -0.466.

As to “PPM1A (peptide sequence: TGFLEIDEHMR, peptide start residue: 103) (UniProt P35813)”, the log2 fold change is -0.205.

As for “GNL1 (peptide sequence: ALGPEQLLR, peptide start residue: 284) (UniProt P36915)”, the log2 fold change came to 0.0919.

Turning to “MATR3 (peptide sequence: EDAMAMVDHCLKK, peptide start residue: 543) (UniProt P43243)”, the log2 fold change worked out at 0.23.

With “GPX4 (peptide sequence: ILAFPCNQFGK, peptide start residue: 97) (UniProt P36969)”, the log2 fold change came to 0.845.

For “MTHFR (peptide sequence: EEDVRPIFWASRPK, peptide start residue: 359) (UniProt P42898)”, the log2 fold change was -0.0829.

For the origin of these results see the supplement of paper PMC12819154, “High-throughput peptide-centric local stability assay extends protein–ligand identification to membrane proteins, tissues and bacteria” (Nature Structural & Molecular Biology, 2025).
